No constants are given. Whether binding was seen depends on the method and setting. Binding seen in cells or lysates may run through a third protein. A yes stands for co-enrichment or nearness to the bait. Other partners may have been found.
Molecular target: Hsp90β, endogenous in MDA-MB-231 cells (human (endogenous in MDA-MB-231)) (UniProt P08238)
Assay: cross-linking + affinity purification with mass spectrometry; surface proteins of MDA-MB-231 cells cross-linked with cell impermeable, thiol-cleavable DTSSP (2 mM, 1 hour, 4°C); lysates immunoprecipitated with mouse anti human Hsp90α/β antibody on Dynabeads; non-reducing SDS-PAGE, bands excised, MS/MS

Chains of the proteins cited; added tags and fusions are not shown. Residues count along the entry.
UniProt P08238: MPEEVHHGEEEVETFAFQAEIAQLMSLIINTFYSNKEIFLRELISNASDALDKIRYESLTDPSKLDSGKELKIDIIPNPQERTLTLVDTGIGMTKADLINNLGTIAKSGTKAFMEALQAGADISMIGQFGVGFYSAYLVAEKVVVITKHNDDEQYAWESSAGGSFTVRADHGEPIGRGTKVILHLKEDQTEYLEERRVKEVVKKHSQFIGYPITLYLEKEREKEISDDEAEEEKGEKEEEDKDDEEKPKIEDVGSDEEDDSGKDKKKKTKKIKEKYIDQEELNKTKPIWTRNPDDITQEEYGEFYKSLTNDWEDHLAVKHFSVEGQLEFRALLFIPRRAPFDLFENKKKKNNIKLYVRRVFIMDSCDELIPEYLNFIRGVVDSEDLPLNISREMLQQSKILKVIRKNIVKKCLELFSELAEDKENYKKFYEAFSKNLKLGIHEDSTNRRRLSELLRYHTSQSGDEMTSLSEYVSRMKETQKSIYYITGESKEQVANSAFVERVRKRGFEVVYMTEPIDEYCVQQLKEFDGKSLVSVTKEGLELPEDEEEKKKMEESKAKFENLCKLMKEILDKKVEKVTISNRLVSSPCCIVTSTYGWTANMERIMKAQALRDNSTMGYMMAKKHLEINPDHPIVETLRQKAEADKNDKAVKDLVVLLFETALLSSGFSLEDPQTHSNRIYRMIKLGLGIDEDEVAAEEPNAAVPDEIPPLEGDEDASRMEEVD
UniProt P02751, residues 32-2477: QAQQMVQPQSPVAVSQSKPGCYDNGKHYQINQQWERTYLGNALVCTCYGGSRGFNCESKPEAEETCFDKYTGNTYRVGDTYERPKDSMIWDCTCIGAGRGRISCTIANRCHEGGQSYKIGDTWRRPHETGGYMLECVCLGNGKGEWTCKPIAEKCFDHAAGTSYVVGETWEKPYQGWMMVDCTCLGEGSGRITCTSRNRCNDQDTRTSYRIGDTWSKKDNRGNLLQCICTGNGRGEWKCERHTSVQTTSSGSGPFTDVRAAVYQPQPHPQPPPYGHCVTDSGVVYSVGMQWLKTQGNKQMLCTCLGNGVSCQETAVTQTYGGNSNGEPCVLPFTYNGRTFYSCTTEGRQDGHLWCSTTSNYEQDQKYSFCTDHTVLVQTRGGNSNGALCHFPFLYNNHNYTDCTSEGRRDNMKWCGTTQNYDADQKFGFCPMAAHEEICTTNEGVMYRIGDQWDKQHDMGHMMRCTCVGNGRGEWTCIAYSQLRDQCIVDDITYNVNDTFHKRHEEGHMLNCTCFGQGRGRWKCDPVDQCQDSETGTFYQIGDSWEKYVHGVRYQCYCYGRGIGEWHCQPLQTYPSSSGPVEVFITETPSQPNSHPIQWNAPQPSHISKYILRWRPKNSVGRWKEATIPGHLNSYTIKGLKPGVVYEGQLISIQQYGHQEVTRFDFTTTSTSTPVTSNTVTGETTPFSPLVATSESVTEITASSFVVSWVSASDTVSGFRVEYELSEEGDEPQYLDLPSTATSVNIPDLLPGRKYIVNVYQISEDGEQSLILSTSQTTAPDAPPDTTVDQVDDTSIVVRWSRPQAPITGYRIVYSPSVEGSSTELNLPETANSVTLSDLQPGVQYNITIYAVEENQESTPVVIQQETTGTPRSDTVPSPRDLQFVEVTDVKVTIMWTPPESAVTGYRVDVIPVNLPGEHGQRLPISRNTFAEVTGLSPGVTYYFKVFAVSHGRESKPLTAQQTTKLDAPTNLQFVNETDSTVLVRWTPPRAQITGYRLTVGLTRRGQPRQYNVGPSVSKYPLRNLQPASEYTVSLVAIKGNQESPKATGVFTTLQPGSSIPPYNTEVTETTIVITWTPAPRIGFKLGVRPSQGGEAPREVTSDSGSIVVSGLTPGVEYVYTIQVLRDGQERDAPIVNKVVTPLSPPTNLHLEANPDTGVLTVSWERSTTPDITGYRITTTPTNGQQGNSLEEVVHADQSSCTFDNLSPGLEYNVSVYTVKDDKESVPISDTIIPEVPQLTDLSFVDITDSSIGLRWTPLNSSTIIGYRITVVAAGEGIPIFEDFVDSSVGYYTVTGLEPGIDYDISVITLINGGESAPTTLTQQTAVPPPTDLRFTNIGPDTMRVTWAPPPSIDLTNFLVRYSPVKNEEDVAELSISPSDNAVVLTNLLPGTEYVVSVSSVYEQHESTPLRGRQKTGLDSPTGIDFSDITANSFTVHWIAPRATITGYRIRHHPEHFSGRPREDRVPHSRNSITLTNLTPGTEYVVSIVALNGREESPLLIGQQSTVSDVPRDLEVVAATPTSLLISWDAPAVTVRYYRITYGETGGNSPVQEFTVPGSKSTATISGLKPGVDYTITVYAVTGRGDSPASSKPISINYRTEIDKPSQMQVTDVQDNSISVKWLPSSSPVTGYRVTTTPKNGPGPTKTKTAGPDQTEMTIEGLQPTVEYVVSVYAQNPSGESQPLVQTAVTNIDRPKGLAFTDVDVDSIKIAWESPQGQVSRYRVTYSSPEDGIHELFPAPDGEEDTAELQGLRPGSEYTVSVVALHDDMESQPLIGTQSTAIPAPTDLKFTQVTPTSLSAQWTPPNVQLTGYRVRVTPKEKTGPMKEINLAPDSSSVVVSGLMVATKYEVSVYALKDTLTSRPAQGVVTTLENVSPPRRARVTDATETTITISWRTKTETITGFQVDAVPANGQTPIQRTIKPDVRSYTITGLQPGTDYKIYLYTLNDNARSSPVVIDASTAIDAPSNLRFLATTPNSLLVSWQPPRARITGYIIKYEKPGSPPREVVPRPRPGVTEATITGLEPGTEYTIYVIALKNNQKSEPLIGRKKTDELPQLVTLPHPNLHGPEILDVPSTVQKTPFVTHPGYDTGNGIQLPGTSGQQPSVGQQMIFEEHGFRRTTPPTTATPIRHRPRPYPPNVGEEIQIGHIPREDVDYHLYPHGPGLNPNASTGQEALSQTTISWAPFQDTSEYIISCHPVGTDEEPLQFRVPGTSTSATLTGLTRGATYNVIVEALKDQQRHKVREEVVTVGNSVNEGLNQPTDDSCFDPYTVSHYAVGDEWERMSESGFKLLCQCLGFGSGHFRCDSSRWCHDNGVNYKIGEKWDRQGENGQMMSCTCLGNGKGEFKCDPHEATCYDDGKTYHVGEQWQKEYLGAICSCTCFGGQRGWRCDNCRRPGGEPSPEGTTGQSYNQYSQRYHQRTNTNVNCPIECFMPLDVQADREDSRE

- binding: binds
Substance: human FN1 (fibronectin), endogenous in MDA-MB-231 cells (from UniProt P02751 32-2477)
